According to PubChem BioAssay AID1508600 (Functional Genomics Laboratory (NCATS/FGL), 2020):
Among all 53,000 sequences or so, about 3,700 (7%) were called active.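 The calls were made as follows: active = gene knockdowns whose robust z-score for IL-1 alpha signal is at least 2 or at most -2, so actives lie on both sides; inactive = the rest.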 Some of the results follow.

Assay: Components of the Cytosolic LPS Sensing Pathway: Gene Identification via Genome-wide siRNA Screen;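 also: robust z of the log signal after scaling to non-targeting control siRNA wells of the plate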
Settings: RAW264.7 macrophages, IL-1a HTRF, actives lie on both sides, screened at 100 nM (by protocol), cells primed 5 h with Pam3CSK4 first
How it was run: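 RAW264.7; siRNA 100 nM final, RNAiMAX, 48h 37 degrees C; Pam3CSK4 5 h; LipidA + TransIT-TKO 24 h; IL-1a HTRF; CellTiter-Glo viability; robust z vs negative-control median.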

| Sequence | z-score |
| --- | --- |
| GGAUUGAAAAGAUGAAUCGTT against Mrpl58 | inactive: 0.704 |
| GCCCUAUAUGUACCAAGUGTT against Mmp14 | inactive: 0.273 |
| GGACUUCUCUGGGACUUCATT against Syt9 | inactive: 0.406 |
| GGGAGUCCCAAUUGUGUGCTT against Gpr88 | inactive: -0.841 |
| GGAUUCUGAGUGUACGUUUTT against Zfp28 | inactive: 0.0227 |
| GAGAAGAGAGAGAAGCAUUTT against Tssk6 | inactive: 0.339 |
| GCUUAGUGACAUUCAAUCATT against Pde1c | inactive: -0.447 |
| GGAAAUGUAUCGCUUGAAUTT against Dna2 | inactive: -0.336 |
| GGACUAUUCACAAAGAAGATT against Dusp11 | inactive: -1.24 |
| GGACGAACCUUUAUACCAGTT against Arhgef15 | inactive: 0.452 |
| GACAGAGGAAUUUGUCUCCTT against Olfr1120 | active: 2.1 |
| GGAGGAUUGAGCAGUGUCUTT against Otos | inactive: -1.63 |
| GGCUGUGCAAGAUGUUCUATT against Gpr27 | active: 3.29 |
| GCAAAGGAUCGCUUGAAAATT against Mrpl40 | inactive: -1.15 |
| GCGAACCGAGAGUCUAUACTT against Gm9725 | inactive: 1.37 |
| GGAUGUGCGAUAUAAACCATT against Prl6a1 | inactive: 0.316 |
| GGCCUCAACAUGAUGACUGTT against Enox1 | inactive: 0.539 |
| GGAAGGAAACUACGAAGGUTT against Edn1 | inactive: -0.534 |
| GGUUGUAGAAGAUGGCUAUTT against Ppp1ca | inactive: 0.529 |
| GGCAAUGAUUAAAGGAAAATT against Olfr1436 | inactive: 0.716 |
| GGAUAACAUGAUCUCUACUTT against Klc4 | inactive: 0.792 |
| GGUGGACAUGAGGAAACGATT against Use1 | inactive: -1.38 |
| GGUGGAAUUUCAGCUCUACTT against Zcchc7 | inactive: 1.18 |

| Sequence | z-score |
| --- | --- |
| GGUUCGAGUUUCAUACUAUTT against Padi4 | active: 2.56 |
| GGAGAUCACUAUGUUCUGATT against Ivd | inactive: 1.46 |
| GGAGACAGUUCAGAAGUGGTT against Glp2r | inactive: 0.0837 |
| GCUUGGAAACUCGUCUAAATT against Map1lc3b | inactive: 0.783 |
| GGCUGAGUAAUGAACCUCUTT against Gmnn | inactive: -0.672 |
| GGAGACGACAAAAAUCAGATT against Mrpl32 | inactive: 0.0471 |
| GCUAAGUCCCAGCUAAGUUTT against Szrd1 | inactive: 0.337 |
| CCAUUAUUCUAGUGUCCUATT against Olfr1368 | inactive: -0.753 |
| GCCUUGAAUACCACAUUUCTT against Arl10 | inactive: 1.23 |
| GGACAUCUGUGUUUAUUCATT against Tfcp2 | inactive: 0.0486 |
| GGUAGAGAUCAUCAAUGCATT against Ggt5 | inactive: 0.0858 |
| GGCAAUGAGACAAUUGUCATT against Cpe | inactive: -0.638 |
| GGUUGUACCUACAACAGAUTT against Tiprl | inactive: -0.773 |
| GGUACCUGAGGUAGAAAAGTT against Pnma3 | active: -2.5 |
| CCAAUUUGACCCAUACUAUTT against Crtc2 | inactive: 1.61 |
| UCAGGAUACAAUCAUCGCCTT against Olfr101 | inactive: 0.0316 |
| GGAUUUCAUCAAAGGUCUUTT against Kcnip4 | inactive: -0.174 |
| GUCCCACUCAGGAGAAUUUTT against Lrrc61 | inactive: 0.917 |
| GGCUUAUCUCUAAAUCCAATT against Afp | inactive: 1.52 |
| GGCAAUAAGCACCUGGGUATT against Serpini2 | inactive: 0.594 |
| CCAGACUAGAUAUCAUAUCTT against Nup54 | inactive: -0.272 |
| GGGAACCAGCCAGUUCAAGTT against Ap1g2 | inactive: 1.39 |
| GGCAGGAGAAAGGCCUUUUTT against Olfr535 | inactive: 0.123 |

21 successive records already listed, quoted:

| Sequence | z-score |
| --- | --- |
| GCAAAGGAUCGCUUGAAAATT against Mrpl40 | inactive: -1.15 |
| GCGAACCGAGAGUCUAUACTT against Gm9725 | inactive: 1.37 |
| GGAUGUGCGAUAUAAACCATT against Prl6a1 | inactive: 0.316 |
| GGCCUCAACAUGAUGACUGTT against Enox1 | inactive: 0.539 |
| GGAAGGAAACUACGAAGGUTT against Edn1 | inactive: -0.534 |
| GGUUGUAGAAGAUGGCUAUTT against Ppp1ca | inactive: 0.529 |
| GGCAAUGAUUAAAGGAAAATT against Olfr1436 | inactive: 0.716 |
| GGAUAACAUGAUCUCUACUTT against Klc4 | inactive: 0.792 |
| GGUGGACAUGAGGAAACGATT against Use1 | inactive: -1.38 |
| GGUGGAAUUUCAGCUCUACTT against Zcchc7 | inactive: 1.18 |
| GGUUCGAGUUUCAUACUAUTT against Padi4 | active: 2.56 |
| GGAGAUCACUAUGUUCUGATT against Ivd | inactive: 1.46 |
| GGAGACAGUUCAGAAGUGGTT against Glp2r | inactive: 0.0837 |
| GCUUGGAAACUCGUCUAAATT against Map1lc3b | inactive: 0.783 |
| GGCUGAGUAAUGAACCUCUTT against Gmnn | inactive: -0.672 |
| GGAGACGACAAAAAUCAGATT against Mrpl32 | inactive: 0.0471 |
| GCUAAGUCCCAGCUAAGUUTT against Szrd1 | inactive: 0.337 |
| CCAUUAUUCUAGUGUCCUATT against Olfr1368 | inactive: -0.753 |
| GCCUUGAAUACCACAUUUCTT against Arl10 | inactive: 1.23 |
| GGACAUCUGUGUUUAUUCATT against Tfcp2 | inactive: 0.0486 |
| GGUAGAGAUCAUCAAUGCATT against Ggt5 | inactive: 0.0858 |

(list continues)

| Sequence | z-score |
| --- | --- |
| GGCUCCUAGCUGUUUCAGUTT against Hormad1 | inactive: -1.62 |
| GGAGAAGGUGAAACAAUUGTT against Ubap2l | inactive: -1.6 |
| GGUGCAGUUGAUGAUGAUUTT against Patl1 | inactive: -0.279 |
| GGUGACCAGCAAGUCAUGCTT against Chrdl1 | inactive: -0.663 |
| GGAUCCUGGAUAAUCUGGGTT against Plscr1 | inactive: -1.35 |
| GCGGAAGUGGAUUCUAGAGTT against Nat9 | inactive: 1.06 |
| GGUGUCUUCAAGAGUCAUUTT against Serp1 | inactive: 0.53 |
| GGUGAUCAUCAGUGAUAAGTT against Ttll9 | inactive: -0.77 |
| GGAAAGUCUACAUGUAUUATT against Enpp6 | inactive: -0.886 |
| CCUCAGAUAUUACAUACACTT against Srsf3 | inactive: -0.424 |
| GUUCUGAGAGGAAAAGACUTT against Olfr559 | inactive: -1.16 |
| GCAUUUUCUGCUCGAUAUUTT against Skil | inactive: 1.62 |
| UACACUAGUGCUGUUUACATT against Olfr192 | inactive: -0.804 |
| GCAGUGGUAACAGUGGCCATT against Reg3g | inactive: 0.682 |
| GGUAAACUCAAGUUUUCAGTT against Inpp5j | active: 2.36 |
| GGAAAUCAACAGCUCACAUTT against B3gnt9 | inactive: -0.327 |
| CCACUGAAAGGAACAACAATT against Col6a2 | inactive: 0.447 |
| GGUGUUUGUGAAGGAGCAGTT against Fam117a | active: 2.98 |
| GGGAAGAUGUGAUGUCUUUTT against Rab29 | inactive: -0.556 |
| GGUGAUGCUAGUGAUUGAUTT against Ngb | inactive: -1.34 |
| GGUGGCACUGAUGGAAUUGTT against Hsd17b12 | inactive: 1.25 |
| GACCUACAAGAAGUUCGGCTT against Nkx2-4 | inactive: 1.75 |
| GGUAGAGCUAAGUAAAGAGTT against Pwp1 | inactive: -0.977 |
